Assay results taken from ChEMBL document CHEMBL3045991, “Synthesis of new 2(1H)-quinoxalinone derivatives for antimicrobial and antiinflammatory evaluation” (Med Chem Res, 2009).

Test system: Candida albicans
Test: Antifungal activity against Candida albicans at 10 mg/ml by cup-plate technique
Type: functional, organism-based

## NYSTATIN
  inhibition zone (IZ): 20 mm
